# Source: the supplement of paper PMC10032668
# Protein sequences, listed by entry. Tags and fused reporters are not part of them.
# CKS2, P33552, UniProt P33552, whole entry: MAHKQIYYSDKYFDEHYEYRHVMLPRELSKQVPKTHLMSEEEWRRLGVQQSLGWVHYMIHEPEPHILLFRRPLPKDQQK
# MT-ND1, P03886, UniProt P03886, whole entry: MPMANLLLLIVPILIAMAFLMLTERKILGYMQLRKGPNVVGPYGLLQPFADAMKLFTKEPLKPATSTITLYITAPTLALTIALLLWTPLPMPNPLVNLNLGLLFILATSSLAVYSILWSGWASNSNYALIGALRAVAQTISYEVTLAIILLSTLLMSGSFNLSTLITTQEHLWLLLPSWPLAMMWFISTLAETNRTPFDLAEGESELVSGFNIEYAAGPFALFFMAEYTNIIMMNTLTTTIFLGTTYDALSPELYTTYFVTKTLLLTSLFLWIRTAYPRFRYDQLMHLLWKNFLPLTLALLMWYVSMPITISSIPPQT
# PCBP2, Q15366, UniProt Q15366, whole entry: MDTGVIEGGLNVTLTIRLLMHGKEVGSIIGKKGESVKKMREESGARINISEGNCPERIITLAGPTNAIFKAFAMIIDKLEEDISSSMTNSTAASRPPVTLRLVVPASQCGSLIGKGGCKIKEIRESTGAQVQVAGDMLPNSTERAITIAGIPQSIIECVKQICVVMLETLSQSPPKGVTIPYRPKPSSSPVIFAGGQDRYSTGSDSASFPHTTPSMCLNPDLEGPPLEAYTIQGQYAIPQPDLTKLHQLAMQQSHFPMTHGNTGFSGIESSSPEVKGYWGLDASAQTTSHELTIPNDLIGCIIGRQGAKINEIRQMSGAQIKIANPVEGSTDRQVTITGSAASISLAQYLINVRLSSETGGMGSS
# APLP2, Q06481, UniProt Q06481, whole entry: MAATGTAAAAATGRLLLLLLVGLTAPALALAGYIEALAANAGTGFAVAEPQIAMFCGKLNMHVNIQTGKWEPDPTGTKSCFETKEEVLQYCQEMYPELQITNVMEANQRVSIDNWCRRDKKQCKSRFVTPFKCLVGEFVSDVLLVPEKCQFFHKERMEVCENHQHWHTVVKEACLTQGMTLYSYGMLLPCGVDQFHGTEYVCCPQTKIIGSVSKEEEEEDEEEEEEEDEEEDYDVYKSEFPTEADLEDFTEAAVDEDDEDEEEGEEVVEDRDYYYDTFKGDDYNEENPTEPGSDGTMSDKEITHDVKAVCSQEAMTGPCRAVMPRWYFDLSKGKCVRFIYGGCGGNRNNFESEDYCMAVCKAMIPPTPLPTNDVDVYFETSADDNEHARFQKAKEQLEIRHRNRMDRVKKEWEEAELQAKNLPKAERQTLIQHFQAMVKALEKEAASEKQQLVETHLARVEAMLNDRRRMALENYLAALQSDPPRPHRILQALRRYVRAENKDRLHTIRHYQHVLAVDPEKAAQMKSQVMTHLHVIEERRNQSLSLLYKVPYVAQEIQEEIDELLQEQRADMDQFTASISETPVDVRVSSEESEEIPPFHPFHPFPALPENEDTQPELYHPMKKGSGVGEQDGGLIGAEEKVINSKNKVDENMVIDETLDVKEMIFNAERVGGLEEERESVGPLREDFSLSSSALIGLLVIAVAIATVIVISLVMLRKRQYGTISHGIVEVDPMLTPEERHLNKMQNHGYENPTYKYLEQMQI
# SRSF9, Q13242, UniProt Q13242, whole entry: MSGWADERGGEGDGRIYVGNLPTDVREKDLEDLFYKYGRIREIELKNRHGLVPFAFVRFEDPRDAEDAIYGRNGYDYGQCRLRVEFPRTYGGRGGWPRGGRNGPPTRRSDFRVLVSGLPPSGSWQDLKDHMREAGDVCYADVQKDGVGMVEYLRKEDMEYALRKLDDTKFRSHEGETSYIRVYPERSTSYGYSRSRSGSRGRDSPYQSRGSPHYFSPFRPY
# CD3EAP, O15446, UniProt O15446, whole entry: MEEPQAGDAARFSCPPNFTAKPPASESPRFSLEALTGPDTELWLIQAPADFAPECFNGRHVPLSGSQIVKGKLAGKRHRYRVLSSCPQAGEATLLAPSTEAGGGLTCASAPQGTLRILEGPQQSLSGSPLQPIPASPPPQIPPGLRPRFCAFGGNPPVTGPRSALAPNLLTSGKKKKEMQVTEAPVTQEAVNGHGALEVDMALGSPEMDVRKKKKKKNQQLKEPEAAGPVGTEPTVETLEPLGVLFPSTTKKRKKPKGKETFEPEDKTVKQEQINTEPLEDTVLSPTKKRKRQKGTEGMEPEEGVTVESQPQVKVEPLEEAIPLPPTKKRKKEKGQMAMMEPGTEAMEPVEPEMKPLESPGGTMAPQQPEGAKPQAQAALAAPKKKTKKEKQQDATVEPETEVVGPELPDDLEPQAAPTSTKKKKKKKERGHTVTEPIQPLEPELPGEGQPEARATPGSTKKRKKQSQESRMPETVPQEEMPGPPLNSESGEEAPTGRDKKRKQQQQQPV
# FGF2, P09038, UniProt P09038, whole entry: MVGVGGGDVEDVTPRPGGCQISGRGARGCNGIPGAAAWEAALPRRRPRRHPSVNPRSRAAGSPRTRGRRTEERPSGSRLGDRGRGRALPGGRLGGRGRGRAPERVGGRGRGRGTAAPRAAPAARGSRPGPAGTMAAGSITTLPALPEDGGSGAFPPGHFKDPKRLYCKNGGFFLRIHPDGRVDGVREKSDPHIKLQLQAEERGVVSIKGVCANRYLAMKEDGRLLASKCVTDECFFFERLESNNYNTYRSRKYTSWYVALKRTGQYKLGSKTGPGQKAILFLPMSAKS
# C15orf61, A6NNL5, UniProt A6NNL5, whole entry: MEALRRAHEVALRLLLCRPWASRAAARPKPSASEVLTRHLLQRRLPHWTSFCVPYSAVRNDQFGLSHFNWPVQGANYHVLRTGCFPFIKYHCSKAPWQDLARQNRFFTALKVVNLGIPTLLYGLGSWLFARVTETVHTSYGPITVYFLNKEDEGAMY
# CHTF18, Q8WVB6, UniProt Q8WVB6, whole entry: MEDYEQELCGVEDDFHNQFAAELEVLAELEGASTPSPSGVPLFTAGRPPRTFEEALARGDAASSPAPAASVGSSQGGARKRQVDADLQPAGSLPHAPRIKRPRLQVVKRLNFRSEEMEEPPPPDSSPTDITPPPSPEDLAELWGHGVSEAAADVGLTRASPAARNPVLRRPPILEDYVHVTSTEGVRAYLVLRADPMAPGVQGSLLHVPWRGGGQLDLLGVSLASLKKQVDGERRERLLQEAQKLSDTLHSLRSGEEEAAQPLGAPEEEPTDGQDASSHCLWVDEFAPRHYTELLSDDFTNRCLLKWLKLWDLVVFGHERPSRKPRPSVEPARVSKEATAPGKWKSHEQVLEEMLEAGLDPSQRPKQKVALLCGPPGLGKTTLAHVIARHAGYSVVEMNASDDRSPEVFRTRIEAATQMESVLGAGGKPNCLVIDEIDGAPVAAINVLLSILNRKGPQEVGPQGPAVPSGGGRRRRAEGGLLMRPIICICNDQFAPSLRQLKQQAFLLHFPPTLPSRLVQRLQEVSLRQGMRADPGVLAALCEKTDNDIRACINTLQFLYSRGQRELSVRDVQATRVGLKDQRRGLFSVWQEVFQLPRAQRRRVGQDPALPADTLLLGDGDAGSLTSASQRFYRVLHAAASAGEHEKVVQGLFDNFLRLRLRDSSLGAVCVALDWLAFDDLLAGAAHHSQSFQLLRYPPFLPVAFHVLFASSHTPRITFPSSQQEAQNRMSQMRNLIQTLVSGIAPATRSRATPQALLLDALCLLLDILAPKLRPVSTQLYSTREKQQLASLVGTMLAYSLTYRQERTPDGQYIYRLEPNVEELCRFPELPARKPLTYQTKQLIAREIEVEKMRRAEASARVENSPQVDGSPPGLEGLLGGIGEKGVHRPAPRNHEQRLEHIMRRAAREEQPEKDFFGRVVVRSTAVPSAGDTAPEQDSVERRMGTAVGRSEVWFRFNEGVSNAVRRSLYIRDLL
# Some of the results follow. The list holds hits alone, and they repeat only in part.
# Columns and labels:
# Assay in all cases: PRISMA enrichment of interactor (LFQ) in peptide spot vs all other peptide spots (log2 fold change); higher = stronger / more specific binding of the interactor to the peptide
# AP3M1, Q9Y2T2 = target: AP3M1, Q9Y2T2
# Procedure: (§1)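 PRISMA: 221 full-length sORF-encoded peptides (3-15 aa), plus SOS1/GLUT1 control peptides, were spot-synthesized on cellulose membranes in triplicate. Membranes were incubated with HEK293T lysate, and bound proteins were identified by LC-MS/MS with LFQ. Enrichment is the log2 fold change versus all other peptide spots; only significant interactors are listed (cutoff c=6, x0=2.8).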
# CKS2, P33552 = target: CKS2, P33552
# Procedure: as §1
# COL6A2, P12110 = target: COL6A2, P12110
# Procedure: as §1
# CTNNBL1, Q8WYA6 = target: CTNNBL1, Q8WYA6
# Procedure: as §1
# DUSP3, P51452 = target: DUSP3, P51452
# Procedure: as §1
# MCU, Q8NE86 = target: MCU, Q8NE86
# Procedure: as §1
# MT-ND1, P03886 = target: MT-ND1, P03886
# Procedure: as §1
# PCBP2, Q15366 = target: PCBP2, Q15366
# Procedure: as §1
# PICALM, Q13492 = target: PICALM, Q13492
# Procedure: as §1
# TBL1X, O60907 = target: TBL1X, O60907
# Procedure: as §1
# TMED1, Q13445 = target: TMED1, Q13445
# Procedure: as §1
# UMPS, P11172 = target: UMPS, P11172
# Procedure: as §1
# VIRMA, Q69YN4 = target: VIRMA, Q69YN4
# Procedure: as §1
# WDR5, P61964 = target: WDR5, P61964
# Procedure: as §1
# YTHDC2, Q9H6S0 = target: YTHDC2, Q9H6S0
# Procedure: as §1
# APLP2, Q06481 = target: APLP2, Q06481
# Procedure: as §1
# MPHOSPH10, O00566 = target: MPHOSPH10, O00566
# Procedure: as §1
# APOBEC3C, Q9NRW3 = target: APOBEC3C, Q9NRW3
# Procedure: as §1
# CRNKL1, Q9BZJ0 = target: CRNKL1, Q9BZJ0
# Procedure: as §1
# MAZ, P56270 = target: MAZ, P56270
# Procedure: as §1
# PUM3, Q15397 = target: PUM3, Q15397
# Procedure: as §1
# SAMD1, Q6SPF0 = target: SAMD1, Q6SPF0
# Procedure: as §1
# SLC37A4, O43826 = target: SLC37A4, O43826
# Procedure: as §1
# SORBS1, Q9BX66 = target: SORBS1, Q9BX66
# Procedure: as §1
# SRSF9, Q13242 = target: SRSF9, Q13242
# Procedure: as §1
# TBL2, Q9Y4P3 = target: TBL2, Q9Y4P3
# Procedure: as §1
# TXNL4A, P83876 = target: TXNL4A, P83876
# Procedure: as §1
# APOD, P05090 = target: APOD, P05090
# Procedure: as §1
# CD3EAP, O15446 = target: CD3EAP, O15446
# Procedure: as §1
# ETHE1, O95571 = target: ETHE1, O95571
# Procedure: as §1
# EXD2, Q9NVH0 = target: EXD2, Q9NVH0
# Procedure: as §1
# FGF2, P09038 = target: FGF2, P09038
# Procedure: as §1
# FHOD1, Q9Y613 = target: FHOD1, Q9Y613
# Procedure: as §1
# PDIA5, Q14554 = target: PDIA5, Q14554
# Procedure: as §1
# RTF1, Q92541 = target: RTF1, Q92541
# Procedure: as §1
# APRT, P07741 = target: APRT, P07741
# Procedure: as §1
# C15orf61, A6NNL5 = target: C15orf61, A6NNL5
# Procedure: as §1
# CHTF18, Q8WVB6 = target: CHTF18, Q8WVB6
# Procedure: as §1
# EIF2B3, Q9NR50 = target: EIF2B3, Q9NR50
# Procedure: as §1
# FOXK1, P85037 = target: FOXK1, P85037
# Procedure: as §1
# NDUFAB1, O14561 = target: NDUFAB1, O14561
# Procedure: as §1
# NUP188, Q5SRE5 = target: NUP188, Q5SRE5
# Procedure: as §1
# SDC4, P31431 = target: SDC4, P31431
# Procedure: as §1
# VPS18, Q9P253 = target: VPS18, Q9P253
# Procedure: as §1
binder,measurement,setting,value
MRVLAFCVLRCPSY [ENY2],PRISMA enrichment of interactor (log2),"AP3M1, Q9Y2T2",6.19
same,PRISMA enrichment of interactor (log2),"CKS2, P33552",4.81
same,PRISMA enrichment of interactor (log2),"COL6A2, P12110",5.11
same,PRISMA enrichment of interactor (log2),"CTNNBL1, Q8WYA6",8.03
same,PRISMA enrichment of interactor (log2),"DUSP3, P51452",5.47
same,PRISMA enrichment of interactor (log2),"MCU, Q8NE86",6.24
same,PRISMA enrichment of interactor (log2),"MT-ND1, P03886",7.05
same,PRISMA enrichment of interactor (log2),"PCBP2, Q15366",4.13
same,PRISMA enrichment of interactor (log2),"PICALM, Q13492",5.32
same,PRISMA enrichment of interactor (log2),"TBL1X, O60907",4.28
same,PRISMA enrichment of interactor (log2),"TMED1, Q13445",5.12
same,PRISMA enrichment of interactor (log2),"UMPS, P11172",5.15
same,PRISMA enrichment of interactor (log2),"VIRMA, Q69YN4",5.02
same,PRISMA enrichment of interactor (log2),"WDR5, P61964",5.12
same,PRISMA enrichment of interactor (log2),"YTHDC2, Q9H6S0",7.09
MLSVGTPRL [TMEM87A],PRISMA enrichment of interactor (log2),"APLP2, Q06481",7.59
same,PRISMA enrichment of interactor (log2),"MPHOSPH10, O00566",5.71
MKERENFRRLGPI [B3GALT2],PRISMA enrichment of interactor (log2),"APOBEC3C, Q9NRW3",4.59
same,PRISMA enrichment of interactor (log2),"CRNKL1, Q9BZJ0",6.2
same,PRISMA enrichment of interactor (log2),"MAZ, P56270",4.98
same,PRISMA enrichment of interactor (log2),"PUM3, Q15397",4.64
same,PRISMA enrichment of interactor (log2),"SAMD1, Q6SPF0",8.66
same,PRISMA enrichment of interactor (log2),"SLC37A4, O43826",7.01
same,PRISMA enrichment of interactor (log2),"SORBS1, Q9BX66",4.9
same,PRISMA enrichment of interactor (log2),"SRSF9, Q13242",6.3
same,PRISMA enrichment of interactor (log2),"TBL2, Q9Y4P3",5.69
same,PRISMA enrichment of interactor (log2),"TXNL4A, P83876",4.24
MADQDRKPA [TAX1BP1],PRISMA enrichment of interactor (log2),"APOD, P05090",4.28
same,PRISMA enrichment of interactor (log2),"CD3EAP, O15446",5.24
same,PRISMA enrichment of interactor (log2),"ETHE1, O95571",4.13
same,PRISMA enrichment of interactor (log2),"EXD2, Q9NVH0",7.92
same,PRISMA enrichment of interactor (log2),"FGF2, P09038",6.93
same,PRISMA enrichment of interactor (log2),"FHOD1, Q9Y613",7.56
same,PRISMA enrichment of interactor (log2),"PDIA5, Q14554",6.54
same,PRISMA enrichment of interactor (log2),"RTF1, Q92541",5.9
MSKHREVCSLSRV [ZFYVE9],PRISMA enrichment of interactor (log2),"APRT, P07741",5.85
same,PRISMA enrichment of interactor (log2),"C15orf61, A6NNL5",5.09
same,PRISMA enrichment of interactor (log2),"CHTF18, Q8WVB6",7.93
same,PRISMA enrichment of interactor (log2),"EIF2B3, Q9NR50",5.66
same,PRISMA enrichment of interactor (log2),"FOXK1, P85037",4.94
same,PRISMA enrichment of interactor (log2),"NDUFAB1, O14561",4.76
same,PRISMA enrichment of interactor (log2),"NUP188, Q5SRE5",6.21
same,PRISMA enrichment of interactor (log2),"SDC4, P31431",13.1
same,PRISMA enrichment of interactor (log2),"VPS18, Q9P253",9.29

# Given bar-delimited: entries from further up.
binder | measurement | setting | value
MKERENFRRLGPI [B3GALT2] | PRISMA enrichment of interactor (log2) | SLC37A4, O43826 | 7.01
MSKHREVCSLSRV [ZFYVE9] | PRISMA enrichment of interactor (log2) | FOXK1, P85037 | 4.94
same | PRISMA enrichment of interactor (log2) | SDC4, P31431 | 13.1
